Results as given in PMC4625724.
No constants are given. Whether binding was seen depends on the method and setting. Binding seen in cells or lysates may run through a third protein. Some results given as binding are weak or reduced against the parent protein; the word gives no strength.

Sequences of proteins named here, by UniProt entry; tags and fusion partners are left off.
UniProt P06428: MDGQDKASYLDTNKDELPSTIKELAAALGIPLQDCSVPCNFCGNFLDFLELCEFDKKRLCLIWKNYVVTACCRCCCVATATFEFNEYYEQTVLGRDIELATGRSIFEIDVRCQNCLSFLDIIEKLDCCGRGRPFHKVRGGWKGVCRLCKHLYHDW
UniProt P84022: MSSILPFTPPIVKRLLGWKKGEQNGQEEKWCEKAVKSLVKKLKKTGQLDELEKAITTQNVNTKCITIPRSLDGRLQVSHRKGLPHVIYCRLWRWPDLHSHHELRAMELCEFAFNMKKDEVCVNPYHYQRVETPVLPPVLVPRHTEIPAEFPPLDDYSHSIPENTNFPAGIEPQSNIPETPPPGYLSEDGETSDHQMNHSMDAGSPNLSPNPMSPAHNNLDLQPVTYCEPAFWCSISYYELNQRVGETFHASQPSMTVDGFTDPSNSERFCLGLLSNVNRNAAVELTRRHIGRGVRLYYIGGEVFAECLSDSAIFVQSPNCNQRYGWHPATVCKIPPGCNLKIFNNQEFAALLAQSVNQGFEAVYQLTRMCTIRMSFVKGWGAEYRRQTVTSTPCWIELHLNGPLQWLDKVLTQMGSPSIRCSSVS
UniProt Q09472: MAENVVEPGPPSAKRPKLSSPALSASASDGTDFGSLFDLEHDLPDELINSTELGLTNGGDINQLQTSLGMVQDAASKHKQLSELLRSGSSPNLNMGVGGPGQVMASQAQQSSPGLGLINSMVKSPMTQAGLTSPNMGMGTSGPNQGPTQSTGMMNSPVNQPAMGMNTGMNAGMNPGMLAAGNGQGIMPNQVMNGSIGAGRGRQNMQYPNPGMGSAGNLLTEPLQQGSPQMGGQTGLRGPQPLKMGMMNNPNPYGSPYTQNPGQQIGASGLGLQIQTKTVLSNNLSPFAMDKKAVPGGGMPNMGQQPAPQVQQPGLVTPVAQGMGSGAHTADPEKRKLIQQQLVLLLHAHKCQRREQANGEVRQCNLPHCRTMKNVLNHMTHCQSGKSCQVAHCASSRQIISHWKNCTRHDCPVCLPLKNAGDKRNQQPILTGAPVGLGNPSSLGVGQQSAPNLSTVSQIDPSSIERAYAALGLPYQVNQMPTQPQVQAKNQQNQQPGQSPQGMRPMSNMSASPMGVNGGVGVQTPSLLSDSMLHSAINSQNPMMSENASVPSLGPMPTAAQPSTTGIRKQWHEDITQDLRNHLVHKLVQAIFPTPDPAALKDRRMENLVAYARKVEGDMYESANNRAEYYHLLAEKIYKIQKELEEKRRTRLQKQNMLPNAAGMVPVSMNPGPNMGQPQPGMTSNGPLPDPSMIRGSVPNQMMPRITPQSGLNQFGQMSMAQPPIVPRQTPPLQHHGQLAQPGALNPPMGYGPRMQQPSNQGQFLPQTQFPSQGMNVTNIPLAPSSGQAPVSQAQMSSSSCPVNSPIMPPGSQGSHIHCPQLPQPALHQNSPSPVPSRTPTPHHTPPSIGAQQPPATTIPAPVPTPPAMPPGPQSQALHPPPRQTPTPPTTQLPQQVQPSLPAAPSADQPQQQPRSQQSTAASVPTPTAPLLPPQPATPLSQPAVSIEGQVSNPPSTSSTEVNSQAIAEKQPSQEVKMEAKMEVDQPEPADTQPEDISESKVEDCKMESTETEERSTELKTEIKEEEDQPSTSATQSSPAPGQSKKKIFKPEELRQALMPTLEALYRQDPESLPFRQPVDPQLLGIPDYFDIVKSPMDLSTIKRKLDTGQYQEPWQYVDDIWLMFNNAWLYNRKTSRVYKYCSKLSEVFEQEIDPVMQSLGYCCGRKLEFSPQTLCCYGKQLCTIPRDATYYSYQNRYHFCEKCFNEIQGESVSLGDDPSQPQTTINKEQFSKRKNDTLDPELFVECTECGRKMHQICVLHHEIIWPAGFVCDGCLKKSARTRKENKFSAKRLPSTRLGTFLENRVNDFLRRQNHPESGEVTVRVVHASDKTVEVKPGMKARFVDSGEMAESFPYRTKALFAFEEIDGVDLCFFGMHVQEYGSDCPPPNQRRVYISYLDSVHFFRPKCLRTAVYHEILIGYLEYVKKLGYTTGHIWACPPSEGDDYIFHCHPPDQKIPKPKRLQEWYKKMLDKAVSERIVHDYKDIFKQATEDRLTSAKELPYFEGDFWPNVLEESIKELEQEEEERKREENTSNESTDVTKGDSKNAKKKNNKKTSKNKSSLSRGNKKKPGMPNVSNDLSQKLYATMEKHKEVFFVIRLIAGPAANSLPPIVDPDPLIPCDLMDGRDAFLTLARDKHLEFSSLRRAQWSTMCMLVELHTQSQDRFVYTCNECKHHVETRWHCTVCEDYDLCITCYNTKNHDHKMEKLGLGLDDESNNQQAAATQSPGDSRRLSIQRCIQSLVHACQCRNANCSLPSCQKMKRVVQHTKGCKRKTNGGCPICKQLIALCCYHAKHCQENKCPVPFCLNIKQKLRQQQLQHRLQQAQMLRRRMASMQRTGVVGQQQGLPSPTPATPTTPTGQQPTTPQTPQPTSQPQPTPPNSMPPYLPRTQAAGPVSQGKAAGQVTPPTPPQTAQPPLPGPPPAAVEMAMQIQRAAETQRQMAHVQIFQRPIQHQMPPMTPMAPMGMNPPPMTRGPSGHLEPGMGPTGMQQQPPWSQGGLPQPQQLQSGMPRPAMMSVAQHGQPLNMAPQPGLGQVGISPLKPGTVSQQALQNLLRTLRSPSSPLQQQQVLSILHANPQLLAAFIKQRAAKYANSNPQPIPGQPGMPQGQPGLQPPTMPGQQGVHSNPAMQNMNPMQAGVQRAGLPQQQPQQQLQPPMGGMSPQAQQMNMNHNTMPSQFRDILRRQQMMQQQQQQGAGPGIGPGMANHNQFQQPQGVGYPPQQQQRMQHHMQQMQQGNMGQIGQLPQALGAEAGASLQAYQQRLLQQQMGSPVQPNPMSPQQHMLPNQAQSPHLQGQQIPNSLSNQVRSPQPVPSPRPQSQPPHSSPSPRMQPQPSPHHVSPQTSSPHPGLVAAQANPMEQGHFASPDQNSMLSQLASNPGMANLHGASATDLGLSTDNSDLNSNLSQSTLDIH
UniProt Q92585: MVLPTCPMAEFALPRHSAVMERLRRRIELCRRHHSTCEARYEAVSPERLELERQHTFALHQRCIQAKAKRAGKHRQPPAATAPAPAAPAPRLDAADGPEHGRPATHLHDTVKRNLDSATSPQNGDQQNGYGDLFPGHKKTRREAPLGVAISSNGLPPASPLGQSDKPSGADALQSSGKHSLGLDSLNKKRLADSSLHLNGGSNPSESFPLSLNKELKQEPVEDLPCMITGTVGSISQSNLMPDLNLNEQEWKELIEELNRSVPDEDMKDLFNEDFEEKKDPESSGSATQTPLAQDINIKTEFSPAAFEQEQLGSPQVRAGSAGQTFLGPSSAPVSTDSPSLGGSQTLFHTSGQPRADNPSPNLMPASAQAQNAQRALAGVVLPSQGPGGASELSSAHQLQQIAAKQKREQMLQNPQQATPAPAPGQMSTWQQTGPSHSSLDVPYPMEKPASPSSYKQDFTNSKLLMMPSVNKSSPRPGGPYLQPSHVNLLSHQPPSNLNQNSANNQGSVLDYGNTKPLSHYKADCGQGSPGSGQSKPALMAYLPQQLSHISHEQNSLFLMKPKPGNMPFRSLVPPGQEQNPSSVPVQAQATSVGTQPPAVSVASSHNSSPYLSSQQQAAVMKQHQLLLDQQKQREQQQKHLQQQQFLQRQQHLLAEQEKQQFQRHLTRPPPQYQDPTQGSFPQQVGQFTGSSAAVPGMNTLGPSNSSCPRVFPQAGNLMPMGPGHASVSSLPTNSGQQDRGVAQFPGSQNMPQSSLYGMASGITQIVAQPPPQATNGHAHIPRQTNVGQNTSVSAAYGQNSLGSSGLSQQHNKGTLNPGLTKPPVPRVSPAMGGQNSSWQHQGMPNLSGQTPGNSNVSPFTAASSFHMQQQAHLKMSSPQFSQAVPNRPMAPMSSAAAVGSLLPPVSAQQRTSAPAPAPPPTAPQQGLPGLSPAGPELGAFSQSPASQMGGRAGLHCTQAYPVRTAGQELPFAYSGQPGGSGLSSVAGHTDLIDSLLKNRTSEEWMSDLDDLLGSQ

biological target: Flag-HPV8-E6wt (human papillomavirus 8 (HPV8)) (UniProt P06428); experiment: co-IP; extracts of transiently transfected RTS3b cells in 100 mM LSDB buffer (100 mM KCl, 50 mM Tris-HCl, 20 % glycerol, 0.1 % NP-40, 1 mM DTT) incubated with FLAG-M2 agarose 2 h at 4 °C, three washes with LSDB containing different KCl concentrations; Western blot of endogenous p300, MAML1, SMAD3

With SMAD3 (from UniProt P84022 1-425) as the substance, how does the binding read?
Its binding is “binds”.

Which binding does the source give for p300 (from UniProt Q09472 1-2414) here?
Its binding is “binds”.

For MAML1 (from UniProt Q92585 1-1016), which binding is on record?
The binding was “binds”.
